# Data published in PubChem BioAssay AID504834 (National Center for Advancing Translational Sciences (NCATS), 2011).
# In all, about 320,000 compounds went through this assay and about 22,000 (6.9%) were called active. Inconclusive results, whose numbers are uncertain, are shown with a selection of clear calls. The call rests on the fitted dose curve; in most records, active means well fitted inhibition curve with a large enough effect; inconclusive means small, poorly fitted or top-dose-only effect, or another doubt; inactive means no such curve, though single readings can be large or run the other way. Potencies of inconclusive entries are doubtful fits and often do not repeat.
# Assay: Primary qHTS for delayed death inhibitors of the malarial parasite plastid, 96 hour incubation
# Conditions: P. falciparum luciferase reporter growth; series mostly up to 28.7 µM; activity change, negative = inhibition: at the top concentration
# Outline: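 Cell-based qHTS: luciferase-tagged P. falciparum in erythrocytes (2% hematocrit, 0.05% parasitemia final) incubated with compounds for 96 hours, 37 C, 5% CO2; luciferase detection reagent then added and luminescence measured.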
# On the % scale 0 is the no-effect control and ±100 the full control effect; potency means the concentration at half of the fitted maximal effect.
SMILES,"activity change, negative = inhibition",Potency
O=C(Nc1ccc2c(c1)C(=O)OC2)c1ccc(F)cc1F,inactive: 97.3%,–
Cc1cc(Cl)n2nc(C)c(-c3ccc(Cl)cc3)c2n1,–,"inconclusive: 18.5 µM [inhibitor, single point]"
O=C(Cn1cnc2ccccc2c1=O)Nc1nnc(C2CC2)s1,inactive: -10.2%,–
O=C(CSc1n[nH]c(-c2cccs2)n1)N1CCCc2ccccc21,–,"inconclusive: 0.0415 µM [inhibitor, full curve, poor fit]"
Cc1ccc(CNS(=O)(=O)NCc2ccccc2)cc1,inactive: 0%,–
Nc1c(C(=O)N2CCOCC2)sc2nc(N3CCOCC3)c3c(c12)CCCC3,inactive: 3.94%,–
CC1CCC/C(=C\Nc2ccc(C(=O)O)cc2)C1=O (stereo unspecified),–,"inconclusive: 1.31 µM [inhibitor, partial curve, poor fit]"
CC(=O)c1ccc(S(=O)(=O)N2CCN(C(=O)c3ccc(N)c([N+](=O)[O-])c3)CC2)cc1,–,"inconclusive: 18.5 µM [inhibitor, single point]"
COc1ccc([C@]23Cc4cc(C#N)ccc4C(O2)c2c(c4ccc(OC)cc4oc2=O)O3)cc1,–,"inconclusive: 1.69 µM [inhibitor, partial curve]"
COc1ccc2c(c1)CCc1c-2n[nH]c1C(=O)O,–,"inconclusive: 3.29 µM [inhibitor, single point]"
CCn1c(O)c(N=NC(=O)CNC(=O)c2ccccc2F)c2ccccc21,–,"inconclusive: 7.38 µM [inhibitor, partial curve, poor fit]"
COC(=O)c1cnc2c(c(C)nn2C)c1OC,inactive: 8.94%,–
O=[N+]([O-])c1ccc(O)c(C=Nc2ccc3oc(Cc4ccc(Cl)cc4)nc3c2)c1,inactive: 38.2%,–
COC(=O)C(NC(=S)N1CC2C[C@@H](C1)Cn1c2cccc1=O)C(C)C (stereo partly specified),–,"inconclusive: 18.5 µM [inhibitor, single point]"
N=C1/C(=C\c2ccc(-c3cccc(Cl)c3)o2)C(=O)N=C2SC=C(c3ccccc3)N12,inactive: 32.4%,–
COc1ccccc1C(=O)NNC(=O)C1CCN(C(=O)OC(C)(C)C)CC1,–,"inconclusive: 11.7 µM [inhibitor, single point]"
CCN(CC)S(=O)(=O)c1ccc(N2CCOCC2)c(NC(=O)COc2ccc(OC)cc2)c1,–,"inconclusive: 4.15 µM [inhibitor, partial curve, poor fit]"
COc1ccc(C(C)=O)cc1CSc1nnc(-c2ccncc2)n1C,–,"inconclusive: 5.22 µM [inhibitor, partial curve, poor fit]"
O=C(N/N=C/c1ccccc1OC(=O)c1ccc2c(c1)OCO2)c1cccc(F)c1,inactive: 5.66%,–
CCCN(CCC)c1nc(Cl)nc(NCCN2CCOCC2)n1,inactive: 225%,–

# Given tab-delimited: two of the compounds above.
SMILES	activity change, negative = inhibition	Potency
Cc1cc(Cl)n2nc(C)c(-c3ccc(Cl)cc3)c2n1	–	inconclusive: 18.5 µM [inhibitor, single point]
O=C(CSc1n[nH]c(-c2cccs2)n1)N1CCCc2ccccc21	–	inconclusive: 0.0415 µM [inhibitor, full curve, poor fit]

# Remaining list, next part

SMILES,"activity change, negative = inhibition",Potency
Cc1nn(Cc2ccccc2)c(C)c1C(=O)N1CCN(S(=O)(=O)/C=C/c2ccccc2)CC1,–,active: 4.15 µM
COc1ccc(COc2cc(-c3cccc(OC)c3)nc3ccc(NC(=O)c4ccc(Cl)cc4)cc23)cc1,–,active: 3.7 µM
Cc1ccc(S(=O)(=O)NC2CCOC(C)(C)C2)cc1 (stereo unspecified),–,"inconclusive: 0.0465 µM [inhibitor, full curve, poor fit]"
Cc1csc(C(C)N(C)C(=O)c2ccc(OC3CCN(Cc4ccccn4)CC3)cc2)n1 (stereo unspecified),–,"inconclusive: 18.5 µM [inhibitor, single point]"
CCOC(=O)CSc1ccc2nnc(CCNS(=O)(=O)c3ccccc3)n2n1,–,"inconclusive: 9.28 µM [inhibitor, single point]"
Cc1cc(NC(=O)CN(C)CC(=O)Nc2ccc(Cl)c(C(F)(F)F)c2)no1,–,"inconclusive: 18.5 µM [inhibitor, single point]"
O=C(C1CCN(S(=O)(=O)c2cccc3nsnc23)CC1)N1CCc2ccccc21,–,"inconclusive: 14.7 µM [inhibitor, single point]"
CC1=C(C(=O)NC2CC(C)(C)Cc3c2cnn3-c2cccc(F)c2)OCCO1 (stereo unspecified),–,"inconclusive: 8.28 µM [inhibitor, partial curve]"
Cc1ccc(N(CC(=O)N2CCN(c3ccccc3F)CC2)S(=O)(=O)c2c(C)noc2C)cc1,–,active: 9.28 µM
COc1ccc(S(=O)(=O)N(C)C)cc1NC(=O)CCNC(=O)c1ccccc1OC,–,"inconclusive: 9.28 µM [inhibitor, partial curve]"
Cc1cccc(Nc2ncnc3nc[nH]c23)c1,–,"inconclusive: 8.28 µM [inhibitor, partial curve, poor fit]"
O=C(Nc1ccc2[nH]c(=O)[nH]c2c1)c1c(F)c(F)c(F)c(F)c1F,–,"inconclusive: 0.465 µM [inhibitor, full curve, poor fit]"
O=C(NC1CCCCC1)C(c1cccs1)N(Cc1cccs1)C(=O)c1cccs1 (stereo unspecified),–,"inconclusive: 9.28 µM [inhibitor, partial curve, poor fit]"
Cc1ccc2nc(N(CCCN(C)C)C(=O)c3ccc(S(=O)(=O)N4CCc5ccccc5C4)cc3)sc2c1,–,"inconclusive: 10.4 µM [inhibitor, single point]"
Cc1ccsc1C(=O)N1CCCC(CO)(Cc2ccccc2)C1 (stereo unspecified),–,"inconclusive: 11.7 µM [inhibitor, single point]"
Nc1nc(Sc2ccc([N+](=O)[O-])cc2[N+](=O)[O-])n[nH]1,–,"inconclusive: 18.5 µM [inhibitor, single point]"
COc1ccc(CCN(Cc2cccs2)S(=O)(=O)c2ccc(-n3cnnn3)c(OC)c2)cc1OC,–,"inconclusive: 18.5 µM [inhibitor, single point]"
CC1CCN(C(=O)CCc2nnc3ccc(NCc4ccco4)nn23)CC1,–,"inconclusive: 18.5 µM [inhibitor, single point]"
CCCn1nc(C(=O)Nc2cccc(C(=O)OC)c2)c2ccccc2c1=O,–,"inconclusive: 18.5 µM [inhibitor, single point]"
Cn1c(=O)c(=O)n(C)c2cc(S(=O)(=O)N3CCCC3C(=O)Nc3ccccc3F)ccc21 (stereo unspecified),–,"inconclusive: 18.5 µM [inhibitor, single point]"
